The other results are listed elsewhere or left out.
Each target was assayed with NC(=O)Nc1cc(-c2cccc(F)c2)sc1C(=O)N[C@H]1CCCNC1 (assay: log2 fold change, soluble protein after heating vs DMSO (PISA); higher = thermal stabilisation; K562 cells, 10 uM, 30 min; active = over 0.2 and 3.5 SD of the protein, either way, in both replicates (recomputed)).
Outline: (§1)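 Soluble protein was defined as the supernatant after 21,000xg for 90 min. It came from K562 cells at 2×10^6 cells/mL given 10 μM compound for 30 min, heated in aliquots for 3 min across 48°C-58°C, pooled, and extracted in PBS with 0.5% NP-40 at 4°C, and was quantified by TMTpro 16plex LC-MS/MS with equalised channel sums. Thermal stability against control samples, from duplicates, is reported as log2 fold change.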

Chains of the proteins cited; added tags and fusions are not shown. Lines headed by an entry give the natural chain unless they say otherwise; changes in a name come on top.
UniProt Q12824, whole entry, looked up: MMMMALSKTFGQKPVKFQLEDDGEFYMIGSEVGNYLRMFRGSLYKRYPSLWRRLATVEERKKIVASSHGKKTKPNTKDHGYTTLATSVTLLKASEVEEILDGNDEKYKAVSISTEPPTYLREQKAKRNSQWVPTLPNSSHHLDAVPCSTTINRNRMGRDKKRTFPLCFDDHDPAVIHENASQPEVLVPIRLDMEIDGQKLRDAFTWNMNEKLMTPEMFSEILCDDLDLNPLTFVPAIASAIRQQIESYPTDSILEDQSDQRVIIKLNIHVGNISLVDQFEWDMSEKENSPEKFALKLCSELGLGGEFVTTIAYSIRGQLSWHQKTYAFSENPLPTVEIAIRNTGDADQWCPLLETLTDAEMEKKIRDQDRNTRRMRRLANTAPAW
UniProt O60749: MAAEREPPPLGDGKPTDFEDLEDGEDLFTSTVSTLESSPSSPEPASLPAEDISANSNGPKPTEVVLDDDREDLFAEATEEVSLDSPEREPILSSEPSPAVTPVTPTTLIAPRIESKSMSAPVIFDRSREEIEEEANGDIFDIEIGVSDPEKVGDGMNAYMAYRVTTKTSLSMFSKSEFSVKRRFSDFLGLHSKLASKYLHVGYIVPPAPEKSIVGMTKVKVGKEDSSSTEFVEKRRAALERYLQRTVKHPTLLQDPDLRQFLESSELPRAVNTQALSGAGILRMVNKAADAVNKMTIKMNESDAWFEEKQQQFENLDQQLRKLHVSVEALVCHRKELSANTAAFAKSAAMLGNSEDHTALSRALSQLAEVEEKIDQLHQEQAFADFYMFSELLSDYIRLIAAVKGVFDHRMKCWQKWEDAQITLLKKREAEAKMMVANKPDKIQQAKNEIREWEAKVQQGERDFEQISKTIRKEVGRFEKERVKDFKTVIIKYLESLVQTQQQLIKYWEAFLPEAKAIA
UniProt Q92540: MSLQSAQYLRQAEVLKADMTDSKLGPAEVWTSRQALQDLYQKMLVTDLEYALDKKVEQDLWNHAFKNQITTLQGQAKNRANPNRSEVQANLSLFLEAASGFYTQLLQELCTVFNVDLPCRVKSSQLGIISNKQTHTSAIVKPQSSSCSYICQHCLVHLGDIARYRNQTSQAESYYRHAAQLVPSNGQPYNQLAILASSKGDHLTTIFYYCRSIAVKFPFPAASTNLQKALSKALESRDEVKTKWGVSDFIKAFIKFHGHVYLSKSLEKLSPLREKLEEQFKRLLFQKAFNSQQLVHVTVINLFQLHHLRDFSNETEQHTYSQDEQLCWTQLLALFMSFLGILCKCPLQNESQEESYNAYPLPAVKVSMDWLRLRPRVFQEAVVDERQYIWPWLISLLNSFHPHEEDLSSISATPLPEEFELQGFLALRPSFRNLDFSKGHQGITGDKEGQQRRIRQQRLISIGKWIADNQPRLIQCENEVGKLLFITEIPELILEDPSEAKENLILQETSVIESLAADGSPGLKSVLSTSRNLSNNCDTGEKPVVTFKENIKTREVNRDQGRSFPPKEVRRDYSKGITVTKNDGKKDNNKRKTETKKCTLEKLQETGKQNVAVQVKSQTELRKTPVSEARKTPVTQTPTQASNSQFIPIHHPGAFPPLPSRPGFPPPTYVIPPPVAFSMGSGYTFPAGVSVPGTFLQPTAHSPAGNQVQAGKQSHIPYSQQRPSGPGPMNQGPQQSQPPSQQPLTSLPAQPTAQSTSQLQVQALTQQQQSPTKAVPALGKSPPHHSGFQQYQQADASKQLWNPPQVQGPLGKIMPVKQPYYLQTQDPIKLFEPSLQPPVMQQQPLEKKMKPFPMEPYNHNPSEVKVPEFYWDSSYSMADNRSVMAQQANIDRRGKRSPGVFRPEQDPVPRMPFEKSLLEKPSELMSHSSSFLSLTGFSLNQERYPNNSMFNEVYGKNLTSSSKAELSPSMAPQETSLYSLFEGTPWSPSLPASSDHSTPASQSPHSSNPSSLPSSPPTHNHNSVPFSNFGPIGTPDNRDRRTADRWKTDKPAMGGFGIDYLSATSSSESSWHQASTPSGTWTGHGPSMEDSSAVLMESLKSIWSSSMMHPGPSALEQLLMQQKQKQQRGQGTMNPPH
UniProt P53814: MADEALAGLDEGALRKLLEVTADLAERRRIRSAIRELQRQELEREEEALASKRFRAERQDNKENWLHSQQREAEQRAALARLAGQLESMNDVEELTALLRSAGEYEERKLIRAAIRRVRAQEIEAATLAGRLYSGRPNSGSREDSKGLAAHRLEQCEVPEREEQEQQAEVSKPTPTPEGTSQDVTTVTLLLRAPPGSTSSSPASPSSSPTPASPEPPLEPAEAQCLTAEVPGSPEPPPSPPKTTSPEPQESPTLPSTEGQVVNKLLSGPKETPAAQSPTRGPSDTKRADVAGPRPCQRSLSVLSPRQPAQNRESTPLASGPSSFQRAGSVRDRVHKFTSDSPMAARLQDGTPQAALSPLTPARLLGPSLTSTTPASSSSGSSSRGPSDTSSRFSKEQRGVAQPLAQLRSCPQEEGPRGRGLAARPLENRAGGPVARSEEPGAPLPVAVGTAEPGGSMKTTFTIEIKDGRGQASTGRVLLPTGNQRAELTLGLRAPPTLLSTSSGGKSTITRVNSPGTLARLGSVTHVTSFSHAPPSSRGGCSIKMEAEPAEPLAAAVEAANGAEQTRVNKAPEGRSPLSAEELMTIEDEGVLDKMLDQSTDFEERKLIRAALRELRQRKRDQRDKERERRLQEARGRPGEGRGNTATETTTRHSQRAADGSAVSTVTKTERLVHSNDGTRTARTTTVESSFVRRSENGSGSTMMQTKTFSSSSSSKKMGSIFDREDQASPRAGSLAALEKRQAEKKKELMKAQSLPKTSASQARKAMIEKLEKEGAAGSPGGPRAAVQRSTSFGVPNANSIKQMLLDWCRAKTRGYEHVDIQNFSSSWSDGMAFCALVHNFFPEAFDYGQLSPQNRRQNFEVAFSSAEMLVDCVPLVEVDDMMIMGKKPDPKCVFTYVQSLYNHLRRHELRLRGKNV
UniProt Q53HV7: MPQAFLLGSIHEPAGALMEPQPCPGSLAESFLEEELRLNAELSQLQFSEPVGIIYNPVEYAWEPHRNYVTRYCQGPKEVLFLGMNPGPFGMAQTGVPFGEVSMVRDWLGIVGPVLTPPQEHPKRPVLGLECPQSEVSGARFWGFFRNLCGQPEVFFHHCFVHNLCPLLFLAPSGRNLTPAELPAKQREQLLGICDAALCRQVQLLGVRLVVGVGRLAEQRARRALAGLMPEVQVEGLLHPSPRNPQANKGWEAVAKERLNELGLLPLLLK
UniProt Q02086: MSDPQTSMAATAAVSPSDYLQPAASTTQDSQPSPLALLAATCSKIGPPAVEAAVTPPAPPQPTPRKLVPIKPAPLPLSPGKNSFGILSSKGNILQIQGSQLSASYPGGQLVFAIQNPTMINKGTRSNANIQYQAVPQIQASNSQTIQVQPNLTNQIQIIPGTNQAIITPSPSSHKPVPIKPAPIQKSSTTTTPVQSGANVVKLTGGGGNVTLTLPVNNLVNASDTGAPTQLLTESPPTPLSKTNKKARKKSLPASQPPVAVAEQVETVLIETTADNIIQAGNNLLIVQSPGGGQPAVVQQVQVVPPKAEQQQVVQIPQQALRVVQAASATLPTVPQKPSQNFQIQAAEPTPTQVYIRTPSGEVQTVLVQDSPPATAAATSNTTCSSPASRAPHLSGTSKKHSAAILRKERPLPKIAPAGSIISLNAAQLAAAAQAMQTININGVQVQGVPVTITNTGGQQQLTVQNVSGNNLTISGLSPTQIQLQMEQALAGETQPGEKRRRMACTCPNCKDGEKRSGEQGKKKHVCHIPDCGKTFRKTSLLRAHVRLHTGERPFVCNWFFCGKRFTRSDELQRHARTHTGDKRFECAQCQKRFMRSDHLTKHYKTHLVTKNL
UniProt P0DJ93: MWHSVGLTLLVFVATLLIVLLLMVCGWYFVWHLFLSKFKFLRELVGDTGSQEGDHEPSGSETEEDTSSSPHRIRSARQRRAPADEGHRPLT
UniProt O00161: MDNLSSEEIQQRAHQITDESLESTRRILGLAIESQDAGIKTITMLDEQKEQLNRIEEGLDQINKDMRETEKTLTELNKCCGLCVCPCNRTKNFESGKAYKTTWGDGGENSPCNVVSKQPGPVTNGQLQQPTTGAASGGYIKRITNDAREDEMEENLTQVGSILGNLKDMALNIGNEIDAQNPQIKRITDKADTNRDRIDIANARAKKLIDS
UniProt Q9Y5W8: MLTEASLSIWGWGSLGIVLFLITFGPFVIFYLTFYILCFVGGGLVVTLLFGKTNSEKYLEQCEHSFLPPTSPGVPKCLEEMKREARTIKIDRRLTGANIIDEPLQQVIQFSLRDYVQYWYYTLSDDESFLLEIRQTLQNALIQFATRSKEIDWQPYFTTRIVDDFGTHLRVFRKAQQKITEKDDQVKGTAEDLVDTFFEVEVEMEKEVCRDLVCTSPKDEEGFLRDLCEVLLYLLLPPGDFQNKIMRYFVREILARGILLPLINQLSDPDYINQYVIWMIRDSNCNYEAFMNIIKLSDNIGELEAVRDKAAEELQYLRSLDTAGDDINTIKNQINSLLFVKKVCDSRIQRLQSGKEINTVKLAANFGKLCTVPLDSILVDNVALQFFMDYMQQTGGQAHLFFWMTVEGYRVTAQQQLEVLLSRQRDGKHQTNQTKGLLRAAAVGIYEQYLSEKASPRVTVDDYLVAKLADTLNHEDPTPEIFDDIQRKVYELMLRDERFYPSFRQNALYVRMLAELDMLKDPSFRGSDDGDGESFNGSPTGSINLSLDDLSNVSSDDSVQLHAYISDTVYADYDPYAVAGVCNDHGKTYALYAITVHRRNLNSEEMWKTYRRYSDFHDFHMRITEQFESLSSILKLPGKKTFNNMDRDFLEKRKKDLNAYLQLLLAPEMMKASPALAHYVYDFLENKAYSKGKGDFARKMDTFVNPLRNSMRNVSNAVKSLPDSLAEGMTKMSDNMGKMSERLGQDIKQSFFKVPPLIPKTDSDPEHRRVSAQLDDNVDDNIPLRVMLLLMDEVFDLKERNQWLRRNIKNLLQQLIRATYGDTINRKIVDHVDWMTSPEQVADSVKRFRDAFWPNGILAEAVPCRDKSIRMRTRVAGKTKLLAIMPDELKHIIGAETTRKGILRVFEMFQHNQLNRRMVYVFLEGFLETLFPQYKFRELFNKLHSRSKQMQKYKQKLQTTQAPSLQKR
UniProt Q86T20: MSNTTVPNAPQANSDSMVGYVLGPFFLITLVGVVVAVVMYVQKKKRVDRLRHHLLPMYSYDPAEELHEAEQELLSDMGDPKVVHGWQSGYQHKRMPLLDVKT
UniProt Q9NXE4: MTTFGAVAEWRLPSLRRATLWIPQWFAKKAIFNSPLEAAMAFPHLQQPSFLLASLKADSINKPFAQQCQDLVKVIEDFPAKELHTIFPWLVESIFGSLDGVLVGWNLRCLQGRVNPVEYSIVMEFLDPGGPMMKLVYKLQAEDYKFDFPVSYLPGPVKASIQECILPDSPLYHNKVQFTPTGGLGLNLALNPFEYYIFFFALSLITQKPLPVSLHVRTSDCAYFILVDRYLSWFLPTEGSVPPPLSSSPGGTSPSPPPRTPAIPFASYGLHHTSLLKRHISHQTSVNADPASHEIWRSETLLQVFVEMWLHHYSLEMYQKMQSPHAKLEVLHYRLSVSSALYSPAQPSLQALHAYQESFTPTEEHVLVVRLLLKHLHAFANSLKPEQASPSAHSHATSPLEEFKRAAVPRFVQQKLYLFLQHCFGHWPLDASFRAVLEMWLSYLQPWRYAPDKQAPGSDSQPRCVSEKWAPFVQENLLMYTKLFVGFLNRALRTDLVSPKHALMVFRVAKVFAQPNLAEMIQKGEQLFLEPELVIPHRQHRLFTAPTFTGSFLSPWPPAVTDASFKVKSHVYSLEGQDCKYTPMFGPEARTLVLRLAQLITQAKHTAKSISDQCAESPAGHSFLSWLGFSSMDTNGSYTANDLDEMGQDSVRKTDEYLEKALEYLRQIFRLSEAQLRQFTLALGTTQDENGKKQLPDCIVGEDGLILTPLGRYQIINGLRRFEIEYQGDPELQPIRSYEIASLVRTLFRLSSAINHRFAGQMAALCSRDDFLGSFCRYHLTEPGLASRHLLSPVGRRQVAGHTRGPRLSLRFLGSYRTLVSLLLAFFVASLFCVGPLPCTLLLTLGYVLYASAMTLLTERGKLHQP
UniProt Q9BT81: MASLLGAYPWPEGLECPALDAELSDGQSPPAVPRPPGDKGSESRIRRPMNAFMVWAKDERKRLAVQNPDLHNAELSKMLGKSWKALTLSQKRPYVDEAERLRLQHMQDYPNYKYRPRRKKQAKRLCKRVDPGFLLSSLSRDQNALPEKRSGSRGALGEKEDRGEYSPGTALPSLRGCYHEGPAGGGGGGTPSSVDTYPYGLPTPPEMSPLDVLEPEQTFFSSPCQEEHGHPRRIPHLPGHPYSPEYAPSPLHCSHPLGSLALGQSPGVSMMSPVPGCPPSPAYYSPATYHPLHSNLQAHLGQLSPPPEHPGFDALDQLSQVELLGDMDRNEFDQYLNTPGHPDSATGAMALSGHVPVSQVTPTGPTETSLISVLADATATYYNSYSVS
UniProt Q8WVI0: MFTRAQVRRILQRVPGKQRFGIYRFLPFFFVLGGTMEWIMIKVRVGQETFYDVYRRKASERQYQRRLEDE

Target	log2 fold change
SNRK (UniProt Q9NRH2)	inactive: -0.19
SMARCB1 (UniProt Q12824)	inactive: -0.023
SNX2 isoform 2 (UniProt O60749)	inactive: 0.043
SMG7 isoform 4 (UniProt Q92540)	inactive: 0.022
SMTN isoform 6 (UniProt P53814)	inactive: 0.142
SNX16 (UniProt P57768)	inactive: 0.019
SMG6 (UniProt Q86US8)	inactive: -0.054
SMUG1 (UniProt Q53HV7)	inactive: -0.117
SP2 (UniProt Q02086)	inactive: 0.164
SNX30 (UniProt Q5VWJ9)	inactive: -0.055
SNX18 (UniProt Q96RF0)	inactive: -0.341
SNX19 (UniProt Q92543)	inactive: 0.03
SMIM13 (UniProt P0DJ93)	inactive: -0.164
SNAP23 isoform 2 (UniProt O00161)	inactive: -0.054
SNX13 (UniProt Q9Y5W8)	inactive: 0.04
SMIM29 (UniProt Q86T20)	inactive: 0

These targets were tested with NC(=O)c1cnc(N[C@@H]2CCCC[C@@H]2N)nc1Nc1cccc(-n2nccn2)c1 in the same assay as above.
Outline: as §1

Target	log2 fold change
SNX2 isoform 2 (UniProt O60749)	inactive: -0.004
SMARCD2 (UniProt Q92925)	inactive: -0.065
SMIM19 (UniProt Q96E16)	inactive: 0.052
SNRPD2 (UniProt K7EJB5)	inactive: -0.172
SNRPN isoform 2 (UniProt P63162)	inactive: 0.187
SNX27 (UniProt Q96L92)	inactive: -0.036
SMPD4 isoform 2 (UniProt Q9NXE4)	inactive: -0.1
SLC8B1 (UniProt Q6J4K2)	inactive: -0.078
SOX7 isoform 2 (UniProt Q9BT81)	inactive: -0.001
SP2 (UniProt Q02086)	inactive: -0.144
SLC9A6 isoform 3 (UniProt Q92581)	inactive: 0.009
SNAPC5 (UniProt O75971)	inactive: 0.052
SMARCA2 (UniProt P51531)	inactive: 0.071
SMAD3 (UniProt P84022)	inactive: 0.019
SMIM4 (UniProt Q8WVI0)	inactive: -0.27

The targets below were run with NC1(c2ccc(-c3nc4ccn5c(=O)[nH]nc5c4cc3-c3ccccc3)cc2)CCC1 in the same assay as above.
Outline: as §1

Target	log2 fold change
SMARCD1 (UniProt Q96GM5)	inactive: -0.076
SMARCD2 (UniProt Q92925)	inactive: -0.046
SNRPD2 (UniProt K7EJB5)	inactive: -0.008
SMPD4 isoform 2 (UniProt Q9NXE4)	inactive: 0.014
SNX16 (UniProt P57768)	inactive: -0.054
SOX7 isoform 2 (UniProt Q9BT81)	inactive: 0.297
SMUG1 (UniProt Q53HV7)	inactive: -0.112
SOX6 (UniProt P35712)	inactive: -0.059
SMARCAL1 (UniProt Q9NZC9)	inactive: -0.099
SMIM13 (UniProt P0DJ93)	inactive: 0.08
SNAP23 isoform 2 (UniProt O00161)	inactive: -0.092
SNX13 (UniProt Q9Y5W8)	inactive: -0.506
SMARCA2 (UniProt P51531)	inactive: -0.099
SMIM4 (UniProt Q8WVI0)	inactive: 0.05

What follows are targets tested with NCC(=O)Nc1ccc(-n2nc(C(F)(F)F)cc2-c2ccc3c(ccc4ccccc43)c2)cc1 in the same assay as above.
Outline: as §1

Target	log2 fold change
SNAP47 (UniProt Q5SQN1)	inactive: -0.157
SMARCB1 (UniProt Q12824)	inactive: -0.261
SNX2 isoform 2 (UniProt O60749)	inactive: -0.264
SMG7 isoform 4 (UniProt Q92540)	inactive: -0.088
SMTN isoform 6 (UniProt P53814)	inactive: 0.047
SMIM19 (UniProt Q96E16)	inactive: -0.114
SNRPD2 (UniProt K7EJB5)	inactive: -0.292
SNX27 (UniProt Q96L92)	inactive: -0.088
SMPD4 isoform 2 (UniProt Q9NXE4)	inactive: -0.03
SNX16 (UniProt P57768)	inactive: 0.073
SLC8B1 (UniProt Q6J4K2)	inactive: 0.034
SOX7 isoform 2 (UniProt Q9BT81)	inactive: 0.087
SOX6 (UniProt P35712)	inactive: -0.045
SMARCAL1 (UniProt Q9NZC9)	inactive: -0.039
SNAPC5 (UniProt O75971)	inactive: 0.019
SLC9B2 (UniProt Q86UD5)	inactive: -0.092
SNAP23 isoform 2 (UniProt O00161)	inactive: 0.267
SMAD3 (UniProt P84022)	inactive: 0.007
SMIM4 (UniProt Q8WVI0)	inactive: -0.148

These targets were tested with Nc1ccccc1NC(=O)c1ccc(CNC(=O)OCc2cccnc2)cc1 [entinostat] in the same assay as above.
Outline: as §1

Target	log2 fold change
SNRK (UniProt Q9NRH2)	inactive: -0.046
SMARCB1 (UniProt Q12824)	inactive: -0.005
SNX2 isoform 2 (UniProt O60749)	inactive: 0.088
SMG7 isoform 4 (UniProt Q92540)	inactive: 0.04
SMTN isoform 6 (UniProt P53814)	inactive: -0.135
SNX16 (UniProt P57768)	inactive: -0.045
SMG6 (UniProt Q86US8)	inactive: 0.057
SMUG1 (UniProt Q53HV7)	inactive: 0.049
SP2 (UniProt Q02086)	inactive: -0.018
SNX30 (UniProt Q5VWJ9)	inactive: -0.041
SNX18 (UniProt Q96RF0)	inactive: -0.164
SNX19 (UniProt Q92543)	inactive: -0.038
SMIM13 (UniProt P0DJ93)	inactive: -0.179
SNAP23 isoform 2 (UniProt O00161)	inactive: -0.346
SNX13 (UniProt Q9Y5W8)	inactive: -0.109
SMIM29 (UniProt Q86T20)	inactive: -0.056

Reference: the supplement of paper PMC10849652
